# According to paper PMC11169566:
# Protein sequences, listed by entry. Tags and fused reporters are not part of them.
# UniProt Q99942: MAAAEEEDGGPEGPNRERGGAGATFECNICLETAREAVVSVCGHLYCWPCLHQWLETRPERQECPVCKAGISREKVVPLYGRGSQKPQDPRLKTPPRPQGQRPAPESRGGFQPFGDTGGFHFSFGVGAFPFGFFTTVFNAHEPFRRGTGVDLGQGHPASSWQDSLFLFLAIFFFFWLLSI
# UniProt Q96BY7: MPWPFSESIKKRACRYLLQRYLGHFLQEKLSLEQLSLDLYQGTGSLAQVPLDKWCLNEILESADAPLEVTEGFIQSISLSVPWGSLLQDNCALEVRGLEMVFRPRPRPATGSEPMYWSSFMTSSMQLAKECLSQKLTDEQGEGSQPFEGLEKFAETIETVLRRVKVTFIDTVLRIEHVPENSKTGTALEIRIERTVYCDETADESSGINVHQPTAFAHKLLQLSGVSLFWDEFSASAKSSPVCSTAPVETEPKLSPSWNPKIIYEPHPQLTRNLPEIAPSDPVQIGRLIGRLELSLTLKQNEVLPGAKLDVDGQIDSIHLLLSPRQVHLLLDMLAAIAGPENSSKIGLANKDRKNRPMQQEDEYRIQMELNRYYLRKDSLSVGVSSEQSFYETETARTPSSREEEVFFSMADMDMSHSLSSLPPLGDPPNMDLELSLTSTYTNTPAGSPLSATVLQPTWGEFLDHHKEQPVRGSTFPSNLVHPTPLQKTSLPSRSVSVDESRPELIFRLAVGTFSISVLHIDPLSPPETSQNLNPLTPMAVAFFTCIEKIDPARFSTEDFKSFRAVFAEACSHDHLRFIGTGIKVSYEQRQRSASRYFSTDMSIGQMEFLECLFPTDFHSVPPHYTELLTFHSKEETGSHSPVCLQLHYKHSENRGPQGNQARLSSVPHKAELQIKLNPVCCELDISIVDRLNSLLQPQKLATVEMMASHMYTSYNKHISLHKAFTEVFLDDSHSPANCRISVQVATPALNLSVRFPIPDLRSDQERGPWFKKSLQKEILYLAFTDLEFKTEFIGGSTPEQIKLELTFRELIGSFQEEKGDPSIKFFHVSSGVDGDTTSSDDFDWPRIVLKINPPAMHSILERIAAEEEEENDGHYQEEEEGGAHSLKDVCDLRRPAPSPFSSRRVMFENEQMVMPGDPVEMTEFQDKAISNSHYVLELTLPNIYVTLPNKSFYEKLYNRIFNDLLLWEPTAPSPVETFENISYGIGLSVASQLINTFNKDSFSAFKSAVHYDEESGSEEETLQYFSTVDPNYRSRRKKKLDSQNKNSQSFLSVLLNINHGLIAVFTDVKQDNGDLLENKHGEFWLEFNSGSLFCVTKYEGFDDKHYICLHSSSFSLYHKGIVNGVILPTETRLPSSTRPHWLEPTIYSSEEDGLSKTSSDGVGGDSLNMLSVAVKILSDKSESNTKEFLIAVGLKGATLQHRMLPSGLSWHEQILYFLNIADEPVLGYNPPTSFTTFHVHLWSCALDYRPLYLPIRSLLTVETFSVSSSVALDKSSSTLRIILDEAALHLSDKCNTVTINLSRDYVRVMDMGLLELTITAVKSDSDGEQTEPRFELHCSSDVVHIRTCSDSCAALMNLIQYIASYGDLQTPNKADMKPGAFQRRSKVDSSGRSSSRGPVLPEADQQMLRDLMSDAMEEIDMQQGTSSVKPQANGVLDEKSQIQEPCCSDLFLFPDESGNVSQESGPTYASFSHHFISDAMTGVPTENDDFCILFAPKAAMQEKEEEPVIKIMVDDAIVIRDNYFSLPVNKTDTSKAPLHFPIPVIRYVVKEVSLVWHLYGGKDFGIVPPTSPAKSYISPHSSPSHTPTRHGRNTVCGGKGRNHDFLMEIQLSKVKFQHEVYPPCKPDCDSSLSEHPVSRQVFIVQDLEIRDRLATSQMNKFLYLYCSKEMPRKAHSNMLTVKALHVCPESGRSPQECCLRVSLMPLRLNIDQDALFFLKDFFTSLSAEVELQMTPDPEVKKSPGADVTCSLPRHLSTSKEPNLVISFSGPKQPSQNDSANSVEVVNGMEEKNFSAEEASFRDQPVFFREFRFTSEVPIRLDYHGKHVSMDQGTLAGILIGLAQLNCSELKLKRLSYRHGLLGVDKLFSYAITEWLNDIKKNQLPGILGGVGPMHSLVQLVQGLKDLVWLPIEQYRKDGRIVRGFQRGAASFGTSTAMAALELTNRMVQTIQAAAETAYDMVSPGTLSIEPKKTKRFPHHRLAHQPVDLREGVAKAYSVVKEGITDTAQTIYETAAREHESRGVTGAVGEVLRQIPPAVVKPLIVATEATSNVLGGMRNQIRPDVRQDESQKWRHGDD
# These are yes or no findings as the source states them, for the method shown. In cells and extracts the contact can be indirect. Some binding calls cover weakened binding; strength is not graded here.
# What was measured:
# GST-tagged RNF5 = GST-tagged RNF5 (UniProt Q99942); experiment: pull-down; 'in vitro binding assay' with GST-tagged RNF5 and its truncations; no further conditions told
# [1] = biological target: ATG2B (human (in human gastric cancer cell lines)) (UniProt Q96BY7); experiment: co-IP; gastric cancer cells; 'mutual' immunoprecipitation with western blotting; also done after circDHX8 upregulation and after nicotinamide (NAM) treatment, each of which lessened the interaction
binding (GST-tagged RNF5),binding [1],Substance
binds,,ATG2B (in vitro binding assay) (from UniProt Q96BY7 1-2078)
,binds,E3 ubiquitin-protein ligase RNF5 (from UniProt Q99942 1-180) (enzyme)
